{"source": "PubChem BioAssay AID1671195 (Yale University, 2021)", "test": "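Knockdowns that increase or decrease uptake of fluorescent LDL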 (primary screen)", "system": "human Huh7 hepatoma cells", "reagents": "siRNA pool against human genes, 18 nM", "duration": "about 2 to 2.5 days of knockdown, then 8 h LDL uptake", "challenge": "DiI-labelled LDL at 30 µg/ml for 8 h, in lipoprotein-deficient serum medium", "read-out": "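Fluorescent LDL signal imaged in cells, scaled to the plate median, robust z-score for each replicate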", "scale": "robust z-score: higher = more LDL uptake after knockdown", "rule for the call": "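Active when two or more replicates show a robust z-score above 2 or below -2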", "note": "In all, the deposit lists about 22,000 reagents; this is an unselected part. In the full data, about 1,510 (6.9%) got an active call. 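Active includes knockdowns raising or lowering LDL uptake; positive z-scores mean more uptake, negative mean less.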 A number with no mark means an inactive call."}
{"gene knocked down": "CSGALNACT2 (GeneID 55454)", "robust z-score, replicate 1": "5.03 (active)", "robust z-score, replicate 2": 3.91, "robust z-score, replicate 3": 4.74}
{"gene knocked down": "TRIM61 (GeneID 391712)", "robust z-score, replicate 1": -1.18, "robust z-score, replicate 2": 0.213, "robust z-score, replicate 3": 0.0792}
{"gene knocked down": "LOC154323 (retired record) (GeneID 154323)", "robust z-score, replicate 1": -0.792, "robust z-score, replicate 2": 0.635, "robust z-score, replicate 3": -0.397}
{"gene knocked down": "TMEM198 (GeneID 130612)", "robust z-score, replicate 1": 0.129, "robust z-score, replicate 2": -0.236, "robust z-score, replicate 3": -0.341}
{"gene knocked down": "ALDH1L2 (GeneID 160428)", "robust z-score, replicate 1": -0.964, "robust z-score, replicate 2": -0.814, "robust z-score, replicate 3": -0.835}
{"gene knocked down": "KCTD5 (GeneID 54442)", "robust z-score, replicate 1": 0.667, "robust z-score, replicate 2": 0.572, "robust z-score, replicate 3": 1.82}
{"gene knocked down": "TRAPPC8 (GeneID 22878)", "robust z-score, replicate 1": -0.124, "robust z-score, replicate 2": 0.00548, "robust z-score, replicate 3": 0.244}
{"gene knocked down": "RAPGEFL1 (GeneID 51195)", "robust z-score, replicate 1": -0.465, "robust z-score, replicate 2": -0.0458, "robust z-score, replicate 3": 0.0419}
{"gene knocked down": "LINC02878 (GeneID 286076)", "robust z-score, replicate 1": 0.406, "robust z-score, replicate 2": 0.675, "robust z-score, replicate 3": 0.458}

3 entries already listed, ordered by “robust z-score, replicate 2”, descending.
{"gene knocked down": "KCTD5 (GeneID 54442)", "robust z-score, replicate 1": 0.667, "robust z-score, replicate 2": 0.572, "robust z-score, replicate 3": 1.82}
{"gene knocked down": "TRAPPC8 (GeneID 22878)", "robust z-score, replicate 1": -0.124, "robust z-score, replicate 2": 0.00548, "robust z-score, replicate 3": 0.244}
{"gene knocked down": "ALDH1L2 (GeneID 160428)", "robust z-score, replicate 1": -0.964, "robust z-score, replicate 2": -0.814, "robust z-score, replicate 3": -0.835}

Additional results:
{"gene knocked down": "CCDC185 (GeneID 164127)", "robust z-score, replicate 1": -0.787, "robust z-score, replicate 2": -0.621, "robust z-score, replicate 3": -1.21}
{"gene knocked down": "LMAN2L (GeneID 81562)", "robust z-score, replicate 1": -0.438, "robust z-score, replicate 2": 0.13, "robust z-score, replicate 3": 0.618}
{"gene knocked down": "CCL20 (GeneID 6364)", "robust z-score, replicate 1": 1.5, "robust z-score, replicate 2": 0.16, "robust z-score, replicate 3": 0.502}
{"gene knocked down": "SNRNP25 (GeneID 79622)", "robust z-score, replicate 1": "2.28 (active)", "robust z-score, replicate 2": 2.53, "robust z-score, replicate 3": 1.65}
{"gene knocked down": "PSME4 (GeneID 23198)", "robust z-score, replicate 1": 0.192, "robust z-score, replicate 2": 1.69, "robust z-score, replicate 3": -0.915}
{"gene knocked down": "ARHGEF16 (GeneID 27237)", "robust z-score, replicate 1": -1.47, "robust z-score, replicate 2": -0.741, "robust z-score, replicate 3": -2.25}
{"gene knocked down": "PPP1R12A (GeneID 4659)", "robust z-score, replicate 1": 1.36, "robust z-score, replicate 2": 1.22, "robust z-score, replicate 3": 2.2}
{"gene knocked down": "SH2B3 (GeneID 10019)", "robust z-score, replicate 1": 1.07, "robust z-score, replicate 2": -1.28, "robust z-score, replicate 3": -0.0355}
{"gene knocked down": "UXS1 (GeneID 80146)", "robust z-score, replicate 1": 1.31, "robust z-score, replicate 2": 1.72, "robust z-score, replicate 3": 1.44}
{"gene knocked down": "NOP16 (GeneID 51491)", "robust z-score, replicate 1": 0.949, "robust z-score, replicate 2": 0.998, "robust z-score, replicate 3": 1.71}
{"gene knocked down": "ZNF608 (GeneID 57507)", "robust z-score, replicate 1": -0.832, "robust z-score, replicate 2": -0.257, "robust z-score, replicate 3": -0.454}
{"gene knocked down": "MYCN (GeneID 4613)", "robust z-score, replicate 1": 1.24, "robust z-score, replicate 2": 0.819, "robust z-score, replicate 3": 0.0782}
{"gene knocked down": "CASQ1 (GeneID 844)", "robust z-score, replicate 1": -1.91, "robust z-score, replicate 2": -1.73, "robust z-score, replicate 3": -1.51}
{"gene knocked down": "CHRM4 (GeneID 1132)", "robust z-score, replicate 1": -0.899, "robust z-score, replicate 2": -0.69, "robust z-score, replicate 3": -0.674}
{"gene knocked down": "PRKAR1A (GeneID 5573)", "robust z-score, replicate 1": -1.02, "robust z-score, replicate 2": -1.17, "robust z-score, replicate 3": -1.42}
